Paper PMC10705702

Biological target: T1, Iroquois-Homeobox 4 (IRX4) (human (endogenous in LNCaP)) (UniProt P78413)
T1 sequence: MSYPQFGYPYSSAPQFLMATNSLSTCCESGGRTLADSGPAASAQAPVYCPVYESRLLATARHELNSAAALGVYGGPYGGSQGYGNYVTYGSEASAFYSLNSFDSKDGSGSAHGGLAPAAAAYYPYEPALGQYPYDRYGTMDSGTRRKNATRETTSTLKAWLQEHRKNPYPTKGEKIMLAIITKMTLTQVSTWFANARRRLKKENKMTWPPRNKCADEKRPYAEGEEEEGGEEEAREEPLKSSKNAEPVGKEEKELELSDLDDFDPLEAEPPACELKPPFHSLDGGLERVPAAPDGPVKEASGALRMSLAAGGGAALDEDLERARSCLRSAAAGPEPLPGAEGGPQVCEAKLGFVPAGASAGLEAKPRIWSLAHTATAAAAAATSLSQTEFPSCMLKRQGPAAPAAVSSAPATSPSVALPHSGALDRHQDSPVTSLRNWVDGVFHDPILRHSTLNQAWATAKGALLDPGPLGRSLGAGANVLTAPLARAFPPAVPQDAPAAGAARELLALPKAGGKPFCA
Test: affinity purification with mass spectrometry; IP with anti-IRX4 antibody (Abcam ab123542) and protein G magnetic beads from LNCaP nuclear enriched lysate, 4 °C overnight, IgG control; LC-MS/MS; proteins identified in at least two replicates, cut-off intensity > E+07

B1: FOXA1, also known as hepatocyte nuclear factor 3α (HNF-3α) (protein, UniProt P55317 1-472)
chain: MLGTVKMEGHETSDWNSYYADTQEAYSSVPVSNMNSGLGSMNSMNTYMTMNTMTTSGNMTPASFNMSYANPGLGAGLSPGAVAGMPGGSAGAMNSMTAAGVTAMGTALSPSGMGAMGAQQAASMNGLGPYAAAMNPCMSPMAYAPSNLGRSRAGGGGDAKTFKRSYPHAKPPYSYISLITMAIQQAPSKMLTLSEIYQWIMDLFPYYRQNQQRWQNSIRHSLSFNDCFVKVARSPDKPGKGSYWTLHPDSGNMFENGCYLRRQKRFKCEKQPGAGGGGGSGSGGSGAKGGPESRKDPSGASNPSADSPLHRGVHGKTGQLEGAPAPGPAASPQTLDHSGATATGGASELKTPASSTAPPISSGPGALASVPASHPAHGLAPHESQLHLKGDPHYSFNHPFSINNLMSSSEQQHKLDFKAYEQALQYSPYGSTLPASLPLGSASVTTRSPIEPSALEPAYYQGVYSRPVLNTS
With B1 the binding was “binds”.

No constants are given. Whether binding was seen depends on the method and setting. Binding seen in cells or lysates may run through a third protein. Here binding means that the protein was enriched with, or labelled near, the bait; the list need not be complete.
